Paper PMC10879500
These are yes or no findings as the source states them, for the method shown. In cells and extracts the contact can be indirect. Some binding calls cover weakened binding; strength is not graded here. For some assays here: Where a sequence is shown, tags or fusion partners need not be part of it. Blank lines part the entries; values can stand above or below the binder they belong to.

Sequences of proteins named here, by UniProt entry; tags and fusion partners are left off.
UniProt Q96CW1: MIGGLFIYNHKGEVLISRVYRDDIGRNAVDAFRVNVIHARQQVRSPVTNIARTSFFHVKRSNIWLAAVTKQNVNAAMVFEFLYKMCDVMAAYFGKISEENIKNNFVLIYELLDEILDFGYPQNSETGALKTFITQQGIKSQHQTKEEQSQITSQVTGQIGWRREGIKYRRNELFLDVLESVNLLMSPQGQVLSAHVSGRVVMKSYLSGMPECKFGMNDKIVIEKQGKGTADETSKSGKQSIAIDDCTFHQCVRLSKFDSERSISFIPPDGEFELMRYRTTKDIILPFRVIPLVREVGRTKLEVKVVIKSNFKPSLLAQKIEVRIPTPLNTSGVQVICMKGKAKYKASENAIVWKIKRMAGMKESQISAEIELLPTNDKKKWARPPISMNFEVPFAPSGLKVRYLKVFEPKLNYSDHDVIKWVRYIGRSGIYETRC

Assays:
[1] = molecular target: HA tagged-AP2m (in HEK293) (UniProt Q96CW1); assay: co-IP; HEK293 cell lysates expressing AP2m-HA and FLAG-praja2; immunoprecipitation with anti-HA antibody or control IgG; lysis in 0.5% NP40 buffer (50 mM Tris-HCl pH 7.4, 0.15 M NaCl, 100 mM EDTA)
AP2m-HA (in HeLa) = AP2m-HA (in HeLa) (UniProt Q96CW1); assay: co-IP; HeLa cells transfected with AP2m-HA, starved overnight, treated with EGF for the indicated time points; lysates immunoprecipitated with anti-HA antibody, blotted with anti-praja2 (endogenous praja2) and anti-HA

binding [1]: binds
B1: FLAG tagged-praja2 (wild type) (enzyme, UniProt O43164 1-708)
chain: MSQYTEKEPAAMDQESGKAVWPKPAGGYQTITGRRYGRRHAYVSFKPCMTRHERSLGRAGDDYEVLELDDVPKENSSGSSPLDQVDSSLPSEPIFEKSETEIPTCGSALNQTTESSQSFVAVHHSEEGRDTLGSSTNLHNHSEGEYIPGACSASSVQNGIALVHTDSYDPDGKHGEDNDHLQLSAEVVEGSRYQESLGNTVFELENREAEAYTGLSPPVPSFNCEVRDEFEELDSVPLVKSSAGDTEFVHQNSQEIQRSSQDEMVSTKQQNNTSQERQTEHSPEDAACGPGHICSEQNTNDREKNHGSSPEQVVRPKVRKLISSSQVDQETGFNRHEAKQRSVQRWREALEVEESGSDDLLIKCEEYDGEHDCMFLDPPYSRVITQRETENNQMTSESGATAGRQEVDNTFWNGCGDYYQLYDKDEDSSECSDGEWSASLPHRFSGTEKDQSSSDESWETLPGKDENEPELQSDSSGPEEENQELSLQEGEQTSLEEGEIPWLQYNEVNESSSDEGNEPANEFAQPAFMLDGNNNLEDDSSVSEDLDVDWSLFDGFADGLGVAEAISYVDPQFLTYMALEERLAQAMETALAHLESLAVDVEVANPPASKESIDGLPETLVLEDHTAIGQEQCCPICCSEYIKDDIATELPCHHFFHKPCVSIWLQKSGTCPVCRRHFPPAVIEASAAPSSEPDPDAPPSNDSIAEAP

binding (AP2m-HA (in HeLa)): binds
B2: praja2, endogenous in HeLa cells (enzyme, UniProt O43164 1-708)
chain: B1 chain
